From patent publication US10011587B2, “Multivalent ligands targeting VEGFR” (THE METHODIST HOSPITAL SYSTEM, priority 2014, dated 2018)
At least one compound was matched to its structure with a doubt left. Some entries share one result that the patent states for a list of compounds.

Key:
[1] = tested on: MDA-MB-231, HCT-116, U-87-MG; assay: In vitro cell viability (MTT), cancer cell lines; assay type: cell-based, human; settings: 5 nM to 50 μM
Protocol: MDA-MB-231 and U-87-MG cell lines were cultured in DMEM medium (Gibco, Grand Island, N.Y.) containing 10% fetal bovine serum (FBS) and 1% penicillin streptomycin at 37° C. in a humidified atmosphere of 5% CO2 in air. HCT 116 (human, colorectal carcinoma cell line) was grown in McCoy's 5a medium modified with 10% FBS. HUVECs (Human Umbilical Vein Endothelial cells) were grown in EGM medium (Lonza), supplemented with 20% FBS, 100 U/mL penicillin, 100 μg/mL streptomycin at 37° C. under a humidified atmosphere of 5% CO2 and 95% O2 with same condition as above. For the cell viability assay, the cells were then seeded into 96-well flat-bottomed tissue-culture plates at 1×10^4 cells/well and incubated for 24 or 72 h in humidified atmosphere of 5% (v/v) CO2 at 37° C. in the presence of each compound. For HUVECs, the flat-bottomed 96-well plate (Corning, N.Y., USA) was coated 1 h at 37° C. with gelatin (0.3% in PBS, pH 7.4) and then washed with PBS. […] Following 24 and 72 h of incubation under 5% CO2 at 37° C., the cells were washed with PBS and cell viability was assessed by MTT colorimetric assay. The absorbance of individual wells was measured by using an automated microplate reader (570 nm; VERSAmax, Molecular Devices Corp., Sunnyvale, Calif.). The data are expressed as the percentage of viable cells compared to the survival of a control group and were presented as mean±s.e. […]

[2] = tested on: VEGF165-induced angiogenesis; assay: In vivo Matrigel plug assay; parameters: species or system nu/nu nude mice; settings: VEGF165 500 ng/mL, compound 100 μM, 10 days
Protocol: The matrigel plug assays were performed injecting 637 μL of growth factor reduced liquid Matrigel-PBS mixture was into subcutaneously into the flanks of nu/nu nude mice at 4° C. Once inside the animals, the liquid Matrigel-PBS mixture solidifies. For comparison, Matrigel alone as well as Matrigel containing VEGF165 (Peprotech, Rocky Hill, N.J.) at a final concentration of 500 ng/mL to stimulate angiogenesis, and Matrigel with VEGF165 along with either ZD6474 monomer, ZD6474 dimer at a final concentration of 100 μM were used. All of the injection groups consisted of three mice. After 10 days, the mice were sacrificed and the Matrigel plugs were removed, fixed in 4% formalin and photographed.

[3] = tested on: U87-MG human glioblastoma xenograft; assay: Ex vivo tumor accumulation and biodistribution fluorescence imaging; assay type: in vivo, nu/nu female mice; settings: 24 h after i.v. injection, estimate against known dye concentrations
Protocol: The subcutaneous dorsa of five nu/nu female mice (6 weeks old; 20 g) were inoculated bilaterally with 1×10^7 U87-MG human glioblastoma cells overexpressing the VEGF receptor. Once the tumor diameter was approximately 7-8 mm at 21 days post implant, the mice were divided into three groups for the following injections: (a) free FAM (n=1), (b) FAM-labeled ZD6474-monomer (50 μM; n=2), and (c) FAM-labeled ZD6474-dimer (50 μM, n=2). The animals were manually restrained during intravenous tail injection. All tail vein injections were carried out with a 31 gauge needle placed in a lateral tail vein to inject 100 μL of solution. Twenty-four hours post injection, fluorescence images were acquired using a one second exposure time. The tumors and major organs were dissected and imaged again. […] In vivo fluorescence imaging was performed using the Xenogen IVIS 200 imaging system. To better observe the signal without losses and background due to intervening tissue, fluorescence images were collected ex vivo. Raw counts for each organ were measured using the Xenogen software by drawing oval regions of interest (ROI) around the organ of interest. […] An estimate of the percentage of injected dose accumulated in the tumors was established by comparing measured counts/volume of tissue with the measured counts/volume of a known concentration of the same compound in water at the same exposure. […]

Molecule	toxicity to the cancer cells [1]	appearance of Matrigel plugs (blood vessel formation) [2]	total injected dose ending up in the tumors [3]
COc1cc2c(Nc3ccc(Br)cc3F)ncnc2cc1OCC1CCN(C)CC1 [ZD-G1, vandetanib, reference compound]	low toxicity	paler in color than the positive controls but not entirely clear	
COc1cc2c(Nc3ccc(Br)cc3F)ncnc2cc1OCC1CCN(C(=O)c2ccc(C(=O)O)c(-c3c4ccc(=O)cc-4oc4cc(O)ccc34)c2)CC1 [monomer-FAM]			less than 0.25%
carboxyfluorescein [FAM, reference compound]			less than 0.25%
